Laboratory results as given in patent publication US20070161060A1 (published 2007).
These are yes or no findings as the source states them, for the method shown. In cells and extracts the contact can be indirect. Some binding calls cover weakened binding; strength is not graded here.

Protein sequences, listed by entry. Tags and fused reporters are not part of them. Lines headed by an entry give the natural chain unless they say otherwise; changes in a name come on top. Chains listed by the source or under a name are the forms on record and can include a tag or linker. Residues count along the entry.
c-Myc-tagged monomeric E-cadherin C-terminus (P12830, residues 731-882): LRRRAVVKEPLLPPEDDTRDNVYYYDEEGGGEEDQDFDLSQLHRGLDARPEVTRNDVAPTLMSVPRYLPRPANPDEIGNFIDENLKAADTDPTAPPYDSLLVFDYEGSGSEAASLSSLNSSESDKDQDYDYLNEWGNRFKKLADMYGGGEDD
c-Myc-tagged dimeric E-cadherin C-terminus (Myc-HR-ECDT) (P12830, form named): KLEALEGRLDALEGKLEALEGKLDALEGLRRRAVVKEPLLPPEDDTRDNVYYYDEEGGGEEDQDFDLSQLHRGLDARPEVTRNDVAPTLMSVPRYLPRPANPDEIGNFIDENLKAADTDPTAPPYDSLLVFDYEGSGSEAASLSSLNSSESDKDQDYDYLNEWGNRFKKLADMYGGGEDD
UniProt P35222, residues 2-781: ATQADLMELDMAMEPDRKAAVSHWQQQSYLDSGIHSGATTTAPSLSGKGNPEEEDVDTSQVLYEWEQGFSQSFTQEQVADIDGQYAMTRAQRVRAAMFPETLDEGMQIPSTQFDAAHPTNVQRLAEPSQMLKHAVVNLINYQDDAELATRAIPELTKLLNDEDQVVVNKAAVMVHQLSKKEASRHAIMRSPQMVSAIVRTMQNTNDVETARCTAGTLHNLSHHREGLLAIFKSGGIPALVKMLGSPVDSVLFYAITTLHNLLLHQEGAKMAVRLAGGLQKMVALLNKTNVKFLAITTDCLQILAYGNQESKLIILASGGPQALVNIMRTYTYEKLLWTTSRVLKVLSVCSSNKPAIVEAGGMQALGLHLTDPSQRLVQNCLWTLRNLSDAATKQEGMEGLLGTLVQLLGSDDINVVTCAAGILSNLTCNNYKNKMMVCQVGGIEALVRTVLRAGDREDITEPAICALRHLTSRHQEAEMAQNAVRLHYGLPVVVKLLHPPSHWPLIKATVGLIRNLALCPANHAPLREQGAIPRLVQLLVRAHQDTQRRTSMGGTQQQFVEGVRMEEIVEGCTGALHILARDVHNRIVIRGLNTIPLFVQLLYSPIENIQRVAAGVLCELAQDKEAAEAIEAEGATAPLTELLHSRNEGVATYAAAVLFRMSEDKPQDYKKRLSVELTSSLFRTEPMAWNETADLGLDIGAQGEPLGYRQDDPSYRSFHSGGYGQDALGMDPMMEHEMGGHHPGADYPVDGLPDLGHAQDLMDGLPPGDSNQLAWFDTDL

Tests used:
p120-catenin = biological target: T1, p120-catenin (UniProt O60716); assay: co-IP from HEK293 cells; the monomer is the weaker reference
T1 sequence (looked up): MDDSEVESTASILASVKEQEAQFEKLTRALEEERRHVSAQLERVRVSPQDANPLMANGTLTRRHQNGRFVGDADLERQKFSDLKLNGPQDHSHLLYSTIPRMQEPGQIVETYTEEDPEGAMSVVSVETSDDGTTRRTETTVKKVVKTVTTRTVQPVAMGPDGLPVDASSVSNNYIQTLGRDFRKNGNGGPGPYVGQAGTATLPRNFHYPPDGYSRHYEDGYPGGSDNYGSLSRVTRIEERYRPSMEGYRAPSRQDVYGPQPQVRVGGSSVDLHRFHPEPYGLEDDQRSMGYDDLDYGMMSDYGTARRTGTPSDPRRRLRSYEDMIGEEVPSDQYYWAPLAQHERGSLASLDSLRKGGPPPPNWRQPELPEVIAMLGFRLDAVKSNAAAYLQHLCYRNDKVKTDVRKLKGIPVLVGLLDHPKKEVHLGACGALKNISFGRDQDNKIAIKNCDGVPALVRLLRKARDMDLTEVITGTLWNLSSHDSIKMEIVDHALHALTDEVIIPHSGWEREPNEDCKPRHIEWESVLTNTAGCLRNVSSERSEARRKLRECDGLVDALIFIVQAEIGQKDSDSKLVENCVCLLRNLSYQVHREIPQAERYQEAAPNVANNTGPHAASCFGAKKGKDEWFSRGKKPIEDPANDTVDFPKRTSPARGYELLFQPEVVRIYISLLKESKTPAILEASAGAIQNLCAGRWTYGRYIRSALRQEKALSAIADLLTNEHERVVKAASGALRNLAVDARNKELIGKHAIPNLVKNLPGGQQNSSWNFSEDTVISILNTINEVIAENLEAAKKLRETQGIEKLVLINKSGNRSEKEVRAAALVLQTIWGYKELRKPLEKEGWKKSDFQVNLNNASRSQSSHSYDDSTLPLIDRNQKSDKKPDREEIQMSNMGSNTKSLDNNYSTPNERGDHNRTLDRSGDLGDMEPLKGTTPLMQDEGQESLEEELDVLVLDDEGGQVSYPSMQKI

[1] = biological target: c-Myc-tagged dimeric E-cadherin C-terminus (Myc-HR-ECDT) (UniProt P12830); assay: co-IP from HEK293 cells
[2] = biological target: c-Myc-tagged monomeric E-cadherin C-terminus (UniProt P12830); assay: co-IP from HEK293 cells

Substance | binding (p120-catenin) | binding [1] | binding [2]
c-Myc-tagged monomeric E-cadherin C-terminus (from UniProt P12830 731-882) | binds | – | –
β-catenin (from UniProt P35222 2-781) | – | binds | binds
